Binding data for 9 molecules are collected here from patent US20030203415A1 (published 2003).

No constants are given. Whether binding was seen depends on the method and setting. Some results given as binding are weak or reduced against the parent protein; the word gives no strength.

The target of test [1] is T1, H6NA3 (UniProt P06731 35-144; P06731 499-590, limits assumed).
T1 construct: domain: N domain;domain: A3 domain; recombinant truncated target
T1 sequence: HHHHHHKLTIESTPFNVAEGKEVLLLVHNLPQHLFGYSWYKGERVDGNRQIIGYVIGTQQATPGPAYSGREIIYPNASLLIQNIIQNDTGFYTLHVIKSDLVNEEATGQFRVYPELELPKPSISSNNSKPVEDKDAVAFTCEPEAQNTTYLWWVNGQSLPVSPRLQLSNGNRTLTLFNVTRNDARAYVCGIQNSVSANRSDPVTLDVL
As to the kind of experiment: phage ELISA on H6NA3. (In general: An ELISA detects its analyte on a solid surface through an enzyme-linked reagent.)

The target in test [2] is T1, H6NA3. As to the kind of experiment: phage ELISA on dried H6NA3 plate.
Test [3] addresses T1, H6NA3. The test is described as follows: phage ELISA on NA3.
In test [4] the target is T1, H6NA3. The test is described as follows: phage ELISA, varying amounts of NA3 per well.

RYCEFFPWSLHCGRP (also called TN10/9 Isolate B10) [B10]: the binding entry with H6NA3 [1] was “no binding”.
Turning to NWDCMFGAEGWACSPW [TN10/9-E01], the binding entry with H6NA3 [2] was “binds”.
Turning to DWICNLFKNQWFCGPL [304A-15-E04], the binding result with H6NA3 [3] and with H6NA3 [4] was “binds” in each case.
DWVCNLFKNQWFCDTL [304A-14-A12]: the binding result in the test with H6NA3 [3] and with H6NA3 [4] was “binds” each time.
Turning to DWVCENKKDQWTCNLL [AB-A07], the binding result with H6NA3 [2] and with H6NA3 [4] was “binds” throughout.
With NWRCKLFPRYPYCSSW (also called TN10/9 Isolate G01) [G01], in the test with H6NA3 [1], the binding entry was “no binding”.
Regarding NWFCEMIGRQWGCVPS [TN10/9-F11], the binding entry with H6NA3 [2] is on record as “binds”.
Regarding DWVCNFDQGLAHCFPS [TN10/9-D04], the binding result with H6NA3 [2] was “binds”.
As for NWVCNLFKNQWFCNSY (also called TN10/9 Isolate G08) [FX-G08], the binding result with H6NA3 [2] and with H6NA3 [4] was “binds” each time.
